Results: the supplement of paper PMC9233669
Variants at the floor of the assay are shown more often than the library holds them.

Assays:
biotinyl-Phe-oxazolone = test: self-aminoacylation, catalytic enhancement (BFO) (fold over background); higher = more active; k-Seq, kA / k0A0; sequences stand for … in GGGAAUGGAUCCACAUCUACGAAUUC…UUCACUGCAGACUUGACGAAGCUG
In short: (§1)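 The uncatalyzed rate is the low-activity peak of a bimodal Gaussian fit, and catalytic enhancement is median kA divided by it. The kA values came from pseudo-first-order fits, with 1000 bootstraps, of per-sequence fraction reacted measured by streptavidin capture, triplicate qPCR and Illumina sequencing. Mutagenized RNA pools with a 21-nt variable region (0.43 μM) were reacted with each biotinyl-aminoacyl-oxazolone at 2–1250 μM in 50 μL HEPES/NaCl/KCl/MgCl2/CaCl2 buffer with 5% acetonitrile, pH 6.9–7.0, for 90 minutes at room temperature.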

biotinyl-Met-oxazolone = test: self-aminoacylation, catalytic enhancement (BMO) (fold over background); higher = more active; k-Seq, kA / k0A0; sequences stand for … in GGGAAUGGAUCCACAUCUACGAAUUC…UUCACUGCAGACUUGACGAAGCUG
In short: as §1

biotinyl-Val-oxazolone = test: self-aminoacylation, catalytic enhancement (BVO) (fold over background); higher = more active; k-Seq, kA / k0A0; sequences stand for … in GGGAAUGGAUCCACAUCUACGAAUUC…UUCACUGCAGACUUGACGAAGCUG
In short: as §1

biotinyl-Leu-oxazolone = test: self-aminoacylation, catalytic enhancement (BLO) (fold over background); higher = more active; k-Seq, kA / k0A0; sequences stand for … in GGGAAUGGAUCCACAUCUACGAAUUC…UUCACUGCAGACUUGACGAAGCUG
In short: as §1

biotinyl-Ile-oxazolone = test: self-aminoacylation, catalytic enhancement (BIO) (fold over background); higher = more active; k-Seq, kA / k0A0; sequences stand for … in GGGAAUGGAUCCACAUCUACGAAUUC…UUCACUGCAGACUUGACGAAGCUG
In short: as §1

biotinyl-Trp-oxazolone = test: self-aminoacylation, catalytic enhancement (BWO) (fold over background); higher = more active; k-Seq, kA / k0A0; sequences stand for … in GGGAAUGGAUCCACAUCUACGAAUUC…UUCACUGCAGACUUGACGAAGCUG
In short: as §1

| Sequence | self-aminoacylation (biotinyl-Phe-oxazolone) | self-aminoacylation (biotinyl-Met-oxazolone) | self-aminoacylation (biotinyl-Val-oxazolone) | self-aminoacylation (biotinyl-Leu-oxazolone) | self-aminoacylation (biotinyl-Ile-oxazolone) | self-aminoacylation (biotinyl-Trp-oxazolone) |
| --- | --- | --- | --- | --- | --- | --- |
| CCGCACUUGAAGCAAUCGGUC [Fam1B.1 aminoacylation ribozyme variant] | 1.18 | 0.942 | 1.61 | 1.23 | 1.29 | 1.29 |
| CCGCACUUUAAGCAAUCGGUC [Fam1B.1 aminoacylation ribozyme variant] | 1.17 | 0.894 | 1.05 | 1.05 | 1.07 | 1.25 |
| CCUCACUUCAAGCAAUUGGUC [Fam1B.1 aminoacylation ribozyme variant] | 1.67 | 0.562 | 0.606 | 0.506 | 0.654 | 0.673 |
| CGACAAUUCAAGCAAUCGGUC [Fam1B.1 aminoacylation ribozyme variant] | 1.11 | 0.921 | 1.11 | 0.978 | 1.27 | 1.06 |
| CGACACUUCAAACAAUCGGUC [Fam1B.1 aminoacylation ribozyme variant] | 22.9 | 1.31 | 1.64 | 1.71 | 1.23 | 12.5 |
| CGACACUUCAAGCAAUAGGUC [Fam1B.1 aminoacylation ribozyme variant] | 1.01 | 0.542 | 0.587 | 0.597 | 0.685 | 0.534 |
| CGACACUUCAAGCAAUCGGUC [Fam1B.1 aminoacylation ribozyme variant] | 13.4 | 0.972 | 1.15 | 1.1 | 1.08 | 7.38 |
| CGACACUUCUAGCAAUCGGUC [Fam1B.1 aminoacylation ribozyme variant] | 0.793 | 0.692 | 0.794 | 0.84 | 1.04 | 0.893 |
| CGACACUUGAAGCAAUCGGUC [Fam1B.1 aminoacylation ribozyme variant] | 0.979 | 0.968 | 1.13 | 0.985 | 1.21 | 1.35 |
| CGACUUCAAACAAUCCGUCUG [Fam1A.1 aminoacylation ribozyme variant] | 2.5 | 1.23 | 1.18 | 1.07 | 1.27 | 1.72 |
| CGACUUUAAACAAUCGGUCUG [Fam1A.1 aminoacylation ribozyme variant] | 1.76 | 1.36 | 1.04 | 1.1 | 1.04 | 1.37 |
| CGAUACUUCAAGCAAUCGGUC [Fam1B.1 aminoacylation ribozyme variant] | 1.88 | 1.31 | 1.1 | 0.997 | 1.22 | 1.55 |
| CUAAUUCAAACAAUCGGUCCG [Fam1A.1 aminoacylation ribozyme variant] | 0.604 | 0.575 | 0.539 | 0.732 | 0.553 | 0.513 |
| CUAAUUCAAACAAUCGUUCUG [Fam1A.1 aminoacylation ribozyme variant] | 0.632 | 0.483 | 0.559 | 0.449 | 0.528 | 0.45 |
| CUAAUUCCAACAAUCGGUCUG [Fam1A.1 aminoacylation ribozyme variant] | 0.681 | 0.805 | 0.872 | 0.769 | 0.882 | 0.612 |
| CUAAUUCUAACAAUCGGUCUG [Fam1A.1 aminoacylation ribozyme variant] | 0.731 | 0.652 | 0.714 | 0.624 | 0.751 | 0.474 |
| CUACACUUCAAGCAAUCGGCC [Fam1B.1 aminoacylation ribozyme variant] | 6.22 | 1.69 | 1.75 | 2.41 | 1.82 | 5.03 |
| CUACACUUCAAGCGAUCGGUC [Fam1B.1 aminoacylation ribozyme variant] | 1.86 | 0.947 | 0.978 | 0.836 | 1.06 | 1.74 |
| CUACACUUCGAGCAAUCGGUC [Fam1B.1 aminoacylation ribozyme variant] | 1.17 | 0.653 | 0.788 | 0.914 | 0.745 | 0.701 |
| CUACAUCAAGCAAUCGGUCUG [Fam1A.1 aminoacylation ribozyme variant] | 0.956 | 0.695 | 0.807 | 0.909 | 0.834 | 0.762 |
| CUACAUCAGACAAUCGGUCUG [Fam1A.1 aminoacylation ribozyme variant] | 0.86 | 0.886 | 0.997 | 0.792 | 0.765 | 0.678 |
| CUACCUCAAACAACCGGUCUG [Fam1A.1 aminoacylation ribozyme variant] | 1.7 | 0.932 | 1.11 | 1.13 | 1.35 | 1.13 |
| CUACCUCAAACAAUCGGUAUG [Fam1A.1 aminoacylation ribozyme variant] | 1.26 | 0.908 | 0.916 | 0.989 | 1.19 | 1.59 |
| CUACCUGAAACAAUCGGUCUG [Fam1A.1 aminoacylation ribozyme variant] | 0.626 | 0.951 | 0.725 | 0.714 | 0.724 | 0.839 |
| CUACGUCAAACAAUCGGUCUG [Fam1A.1 aminoacylation ribozyme variant] | 1.11 | 0.991 | 1.06 | 0.942 | 0.992 | 1.03 |
| CUACGUCAAACAAUCGGUUUG [Fam1A.1 aminoacylation ribozyme variant] | 0.709 | 1.09 | 1.52 | 1.52 | 1.08 | 1.09 |

| Sequence | self-aminoacylation (biotinyl-Phe-oxazolone) | self-aminoacylation (biotinyl-Met-oxazolone) | self-aminoacylation (biotinyl-Val-oxazolone) | self-aminoacylation (biotinyl-Leu-oxazolone) | self-aminoacylation (biotinyl-Ile-oxazolone) | self-aminoacylation (biotinyl-Trp-oxazolone) |
| --- | --- | --- | --- | --- | --- | --- |
| CUACGUCCAACAAUCGGUCUG [Fam1A.1 aminoacylation ribozyme variant] | 1.36 | 0.966 | 1.13 | 1.12 | 1.23 | 1.13 |
| CUACUACAAACAAUCAGUCUG [Fam1A.1 aminoacylation ribozyme variant] | 0.88 | 0.467 | 0.732 | 0.7 | 0.657 | 0.554 |
| CUACUACAAACAGUCGGUCUG [Fam1A.1 aminoacylation ribozyme variant] | 0.75 | 0.838 | 0.803 | 0.866 | 0.786 | 0.521 |
| CUACUACGAACAAUCGGUCUG [Fam1A.1 aminoacylation ribozyme variant] | 0.839 | 0.822 | 0.769 | 0.984 | 0.832 | 0.509 |
| CUACUCCAAAUAAUCGGUCUG [Fam1A.1 aminoacylation ribozyme variant] | 1.36 | 0.693 | 0.818 | 0.643 | 0.789 | 1.04 |
| CUACUCCAAGCAAUCGGUCUG [Fam1A.1 aminoacylation ribozyme variant] | 1.32 | 0.959 | 1 | 0.835 | 0.751 | 0.955 |
| CUACUGCAAACAAUCAGUCUG [Fam1A.1 aminoacylation ribozyme variant] | 0.941 | 0.546 | 0.546 | 0.538 | 0.633 | 0.47 |
| CUACUGCAAACCAUCGGUCUG [Fam1A.1 aminoacylation ribozyme variant] | 1.23 | 0.798 | 1.09 | 0.574 | 0.93 | 0.718 |
| CUACUGCAAAUAAUCGGUCUG [Fam1A.1 aminoacylation ribozyme variant] | 1.01 | 0.717 | 0.657 | 0.588 | 0.756 | 0.665 |
| CUACUUAAAACGAUCGGUCUG [Fam1A.1 aminoacylation ribozyme variant] | 0.67 | 1.04 | 0.868 | 0.775 | 0.935 | 0.57 |
| CUACUUAUAACAAUCGGUCUG [Fam1A.1 aminoacylation ribozyme variant] | 0.809 | 0.783 | 0.877 | 0.856 | 0.807 | 0.723 |
| CUACUUCAAACAACAGGUCUG [Fam1A.1 aminoacylation ribozyme variant] | 0.54 | 0.551 | 0.74 | 0.512 | 0.632 | 0.41 |
| CUACUUCAAACAACCGGUCAG [Fam1A.1 aminoacylation ribozyme variant] | 0.921 | 0.952 | 0.974 | 0.811 | 1.03 | 0.98 |
| CUACUUCAAACAACCGGUUUG [Fam1A.1 aminoacylation ribozyme variant] | 0.448 | 0.851 | 0.985 | 0.992 | 0.897 | 0.686 |
| CUACUUCAAACAAGAGGUCUG [Fam1A.1 aminoacylation ribozyme variant] | 0.94 | 1 | 0.945 | 0.758 | 0.942 | 0.528 |
| CUACUUCAAACAAGCGAUCUG [Fam1A.1 aminoacylation ribozyme variant] | 0.625 | 0.566 | 0.715 | 0.567 | 0.685 | 0.311 |
| CUACUUCAAACAAGCGGUGUG [Fam1A.1 aminoacylation ribozyme variant] | 0.943 | 0.909 | 1.07 | 1.14 | 1.15 | 0.446 |
| CUACUUCAAACAAUAGAUCUG [Fam1A.1 aminoacylation ribozyme variant] | 0.847 | 0.826 | 0.643 | 0.6 | 0.738 | 0.476 |
| CUACUUCAAACAAUCGAUAUG [Fam1A.1 aminoacylation ribozyme variant] | 0.824 | 0.549 | 0.606 | 0.454 | 0.603 | 0.49 |
| CUACUUCAAACAAUCGAUCCG [Fam1A.1 aminoacylation ribozyme variant] | 1 | 0.572 | 0.612 | 0.516 | 0.595 | 0.499 |
| CUACUUCAAACAAUCGGCCUC [Fam1A.1 aminoacylation ribozyme variant] | 11.8 | 1.63 | 1.88 | 1.89 | 1.8 | 7.78 |
| CUACUUCAAACAAUCGGGCUA [Fam1A.1 aminoacylation ribozyme variant] | 1.46 | 0.863 | 0.854 | 0.687 | 1.08 | 0.786 |
| CUACUUCAAACAAUCGGUAGG [Fam1A.1 aminoacylation ribozyme variant] | 1.17 | 0.696 | 0.652 | 0.6 | 0.683 | 0.564 |
| CUACUUCAAACAAUCGGUCGU [Fam1A.1 aminoacylation ribozyme variant] | 16.3 | 1.29 | 1.29 | 1.58 | 1.1 | 10.3 |
| CUACUUCAAACAAUCGGUGUU [Fam1A.1 aminoacylation ribozyme variant] | 1.88 | 1.59 | 1.38 | 1.84 | 1.23 | 1.56 |
